Some of the results follow.
Legend:
Assay in all cases: glycan array binding signal (z-score within array); higher = stronger binding
Conditions in all cases: glycan notation: IUPAC condensed, linker removed
[1] = molecular target: Gal(b1-3)[Fuc(a1-4)]GlcNAc(b1-6)GalNAc
In short: (§1)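 Negative Z-scores can be read as non-binding. The Z-score is calculated within each array and then averaged across arrays of one protein sequence at different concentrations or buffers and across linkers. Arrays, 3228 in all, were curated from the Consortium for Functional Glycomics database and kept only where the protein sequence was available.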

[2] = molecular target: Gal(b1-3)[GlcNAc(b1-6)]GalNAc
In short: as §1

[3] = molecular target: Gal(b1-3)[Neu5Ac(a2-6)]GalNAc
In short: as §1

[4] = molecular target: Gal(b1-3)[Neu5Ac(a2-6)]GlcNAc(b1-4)Gal(b1-4)Glc
In short: as §1

[5] = molecular target: Gal(b1-3)[Neu5Ac(b2-6)]GalNAc
In short: as §1

Gal(b1-4)Gal = molecular target: Gal(b1-4)Gal
In short: as §1

[6] = molecular target: Gal(b1-4)GalNAc(a1-3)[Fuc(a1-2)]Gal(b1-4)GlcNAc
In short: as §1

[7] = molecular target: Gal(b1-4)GalNAc(b1-3)[Fuc(a1-2)]Gal(b1-4)GlcNAc
In short: as §1

Gal(b1-4)Glc = molecular target: Gal(b1-4)Glc
In short: as §1

Gal(b1-4)Glc6S = molecular target: Gal(b1-4)Glc6S
In short: as §1

Gal(b1-4)GlcNAc = molecular target: Gal(b1-4)GlcNAc
In short: as §1

[8] = molecular target: Gal(b1-4)GlcNAc(a1-6)Gal(b1-4)GlcNAc
In short: as §1

Gal(b1-4)GlcNAc(b1-2)Man = molecular target: Gal(b1-4)GlcNAc(b1-2)Man
In short: as §1

[9] = molecular target: Gal(b1-4)GlcNAc(b1-2)Man(a1-3)Man(b1-4)GlcNAc(b1-4)GlcNAc
In short: as §1

[10] = molecular target: Gal(b1-4)GlcNAc(b1-2)Man(a1-3)[Gal(b1-4)GlcNAc(b1-2)Man(a1-6)]Man(b1-4)GlcNAc(b1-4)GlcNAc
In short: as §1

[11] = molecular target: Gal(b1-4)GlcNAc(b1-2)Man(a1-3)[Gal(b1-4)GlcNAc(b1-2)Man(a1-6)]Man(b1-4)GlcNAc(b1-4)[Fuc(a1-6)]GlcNAc
In short: as §1

[12] = molecular target: Gal(b1-4)GlcNAc(b1-2)Man(a1-3)[Gal(b1-4)GlcNAc(b1-2)Man(a1-6)][Gal(b1-4)GlcNAc(b1-4)]Man(b1-4)GlcNAc(b1-4)[Fuc(a1-6)]GlcNAc
In short: as §1

[13] = molecular target: Gal(b1-4)GlcNAc(b1-2)Man(a1-3)[Gal(b1-4)GlcNAc(b1-2)Man(a1-6)][GlcNAc(b1-4)]Man(b1-4)GlcNAc(b1-4)[Fuc(a1-6)]GlcNAc
In short: as §1

[14] = molecular target: Gal(b1-4)GlcNAc(b1-2)Man(a1-3)[GlcNAc(b1-2)Man(a1-6)]Man(b1-4)GlcNAc(b1-4)GlcNAc
In short: as §1

[15] = molecular target: Gal(b1-4)GlcNAc(b1-2)Man(a1-3)[GlcNAc(b1-4)][Gal(b1-4)GlcNAc(b1-2)Man(a1-6)]Man(b1-4)GlcNAc(b1-4)GlcNAc
In short: as §1

[16] = molecular target: Gal(b1-4)GlcNAc(b1-2)Man(a1-3)[Man(a1-6)]Man(b1-4)GlcNAc(b1-4)GlcNAc
In short: as §1

[17] = molecular target: Gal(b1-4)GlcNAc(b1-2)Man(a1-6)Man(b1-4)GlcNAc(b1-4)GlcNAc
In short: as §1

[18] = molecular target: Gal(b1-4)GlcNAc(b1-2)Man(a1-6)[GlcNAc(b1-2)Man(a1-3)]Man(b1-4)GlcNAc(b1-4)GlcNAc
In short: as §1

[19] = molecular target: Gal(b1-4)GlcNAc(b1-2)Man(a1-6)[Man(a1-3)]Man(b1-4)GlcNAc(b1-4)GlcNAc
In short: as §1

[20] = molecular target: Gal(b1-4)GlcNAc(b1-2)[Gal(b1-4)GlcNAc(b1-4)]Man(a1-3)[Gal(b1-4)GlcNAc(b1-2)Man(a1-6)]Man(b1-4)GlcNAc(b1-4)GlcNAc
In short: as §1

[21] = molecular target: Gal(b1-4)GlcNAc(b1-2)[Gal(b1-4)GlcNAc(b1-4)]Man(a1-3)[Gal(b1-4)GlcNAc(b1-2)[Gal(b1-4)GlcNAc(b1-6)]Man(a1-6)]Man(b1-4)GlcNAc(b1-4)GlcNAc
In short: as §1

[22] = molecular target: Gal(b1-4)GlcNAc(b1-2)[Gal(b1-4)GlcNAc(b1-4)]Man(a1-3)[Gal(b1-4)GlcNAc(b1-2)[Gal(b1-4)GlcNAc(b1-6)]Man(a1-6)][GlcNAc(b1-4)]Man(b1-4)GlcNAc(b1-4)GlcNAc
In short: as §1

[23] = molecular target: Gal(b1-4)GlcNAc(b1-2)[Gal(b1-4)GlcNAc(b1-4)]Man(a1-3)[GlcNAc(b1-4)][Gal(b1-4)GlcNAc(b1-2)Man(a1-6)]Man(b1-4)GlcNAc(b1-4)GlcNAc
In short: as §1

[24] = molecular target: Gal(b1-4)GlcNAc(b1-2)[Gal(b1-4)GlcNAc(b1-6)]Man(a1-6)[Gal(b1-4)GlcNAc(b1-2)Man(a1-3)]Man(b1-4)GlcNAc(b1-4)GlcNAc
In short: as §1

[25] = molecular target: Gal(b1-4)GlcNAc(b1-2)[Gal(b1-4)GlcNAc(b1-6)]Man(a1-6)[Gal(b1-4)GlcNAc(b1-2)Man(a1-3)]Man(b1-4)GlcNAc(b1-4)[Fuc(a1-6)]GlcNAc
In short: as §1

[26] = molecular target: Gal(b1-4)GlcNAc(b1-2)[Gal(b1-4)GlcNAc(b1-6)]Man(a1-6)[GlcNAc(b1-4)][Gal(b1-4)GlcNAc(b1-2)Man(a1-3)]Man(b1-4)GlcNAc(b1-4)GlcNAc
In short: as §1

[27] = molecular target: Gal(b1-4)GlcNAc(b1-2)[Gal(b1-4)GlcNAc(b1-6)]Man(a1-6)[GlcNAc(b1-4)][Gal(b1-4)GlcNAc(b1-2)[Gal(b1-4)GlcNAc(b1-4)]Man(a1-3)]Man(b1-4)GlcNAc(b1-4)[Fuc(a1-6)]GlcNAc
In short: as §1

[28] = molecular target: Gal(b1-4)GlcNAc(b1-3)Gal(b1-3)GalNAc
In short: as §1

[29] = molecular target: Gal(b1-4)GlcNAc(b1-3)Gal(b1-3)GlcNAc
In short: as §1

[30] = molecular target: Gal(b1-4)GlcNAc(b1-3)Gal(b1-4)Glc
In short: as §1

[31] = molecular target: Gal(b1-4)GlcNAc(b1-3)Gal(b1-4)GlcNAc
In short: as §1

[32] = molecular target: Gal(b1-4)GlcNAc(b1-3)Gal(b1-4)GlcNAc(b1-2)Man(a1-3)[Gal(b1-4)GlcNAc(b1-3)Gal(b1-4)GlcNAc(b1-2)Man(a1-6)]Man(b1-4)GlcNAc(b1-4)GlcNAc
In short: as §1

[33] = molecular target: Gal(b1-4)GlcNAc(b1-3)Gal(b1-4)GlcNAc(b1-2)Man(a1-3)[Gal(b1-4)GlcNAc(b1-3)Gal(b1-4)GlcNAc(b1-2)Man(a1-6)]Man(b1-4)GlcNAc(b1-4)[Fuc(a1-6)]GlcNAc
In short: as §1

B1: RbmA (Vibrio cholerae), A0A2H4NFB8 (protein)
chain: MSNFKGSIMNKRHYYLASCLALLFSTASYAEVDCELQPVIEANLSLNQNQLASNGGYISSQLGIRNESCETVKFKYWLSIKGPEGIYFPAKAVVGVDTAQQESDALTDGRMLNVTRGFWVPEYMADGKYTVSLQVVAENGEVFKANQEFVKGGDLNSLPELNGLTIDIKNQFGINSVESTGGFVPFTIDLNNGREGEAKVEFWMTAVGPDGLIIPVHSREKWMIIAGNTFSKVRGINFDKSYPAGEYTINAQVVDIVSGERVEQLMTVVKK
With B1 the “glycan array binding signal (z-score)” value [1] was -0.562, the “glycan array binding signal (z-score)” value [2] was -0.519 and the “glycan array binding signal (z-score)” value [3] was -0.239. The “glycan array binding signal (z-score)” value [4] was 0.856, the “glycan array binding signal (z-score)” value [5] was -0.623 and the “glycan array binding signal (z-score)” value (Gal(b1-4)Gal) was 0.213. The “glycan array binding signal (z-score)” value [6] was -0.268, the “glycan array binding signal (z-score)” value [7] was -0.685 and the “glycan array binding signal (z-score)” value (Gal(b1-4)Glc) was 0.424. The “glycan array binding signal (z-score)” value (Gal(b1-4)Glc6S) was 0.408, the “glycan array binding signal (z-score)” value (Gal(b1-4)GlcNAc) was -0.461 and the “glycan array binding signal (z-score)” value [8] was -1.11. The “glycan array binding signal (z-score)” value (Gal(b1-4)GlcNAc(b1-2)Man) was -0.365, the “glycan array binding signal (z-score)” value [9] was 0.354 and the “glycan array binding signal (z-score)” value [10] was -0.069. The “glycan array binding signal (z-score)” value [11] was 0.535, the “glycan array binding signal (z-score)” value [12] was 2.73 and the “glycan array binding signal (z-score)” value [13] was -0.287. The “glycan array binding signal (z-score)” value [14] was -0.515, the “glycan array binding signal (z-score)” value [15] was -0.938 and the “glycan array binding signal (z-score)” value [16] was 1.48. For the same binder, the “glycan array binding signal (z-score)” value [17] was -0.982, the “glycan array binding signal (z-score)” value [18] was -1.26 and the “glycan array binding signal (z-score)” value [19] was -0.611. For the same binder, the “glycan array binding signal (z-score)” value [20] was -1.2, the “glycan array binding signal (z-score)” value [21] was 0.916 and the “glycan array binding signal (z-score)” value [22] was 0.191. For the same binder, the “glycan array binding signal (z-score)” value [23] was -0.125, the “glycan array binding signal (z-score)” value [24] was -0.188 and the “glycan array binding signal (z-score)” value [25] was 1.14. For the same binder, the “glycan array binding signal (z-score)” value [26] was 0.262, the “glycan array binding signal (z-score)” value [27] was 0.642 and the “glycan array binding signal (z-score)” value [28] was -0.423. The “glycan array binding signal (z-score)” value [29] was -0.596, the “glycan array binding signal (z-score)” value [30] was -0.269 and the “glycan array binding signal (z-score)” value [31] was -0.048. The “glycan array binding signal (z-score)” value [32] was 0.31 and the “glycan array binding signal (z-score)” value [33] was 0.281.

From the supplement of paper PMC8728848
